According to US4639468A, “Derivatives of glycinamide, their preparation and their use” (priority 1979, dated 1987):
For at least one compound, name, drawing or mass did not settle the structure.

Tested on: decarboxylase glutamate (GAD)
Test: activity of decarboxylase glutamate (GAD) in homogenizates of rat brain
Format: biochemical
Settings: 10^-4 M
Experimental: The substances of the invention have the property of inhibiting convulsions induced by bicculline in mouse. […] As a matter of fact, bucuculline is a specific antoganist of GABA. Besides, the effect of the products on the activity of the GABA synthesis enzyme, decarboxylase glutamate (GAD), was studied. The activity of the GAD was determined in homogenizates of rat brain according to the method described by L. Parker (Methods in Enzymology, Ed. S. Fleischer, 1974, Vol. XXXII, part V., p. 779). […] In general, the products of the invention […] the activity of the […] (GABA-T), enzyme of GABA catabolism, which results in an increase of the GABA levels at the level of GABA-ergic neurons.

Q: Which “effect on the activity of GAD” value does the source give for `CCCCCCCCC=CCCCCCCCCNCC(N)=O` [Compound 17, 2-n-octadecen-9-ylaminoacetamide] here?
A: particularly remarkable
